## Results of single-concentration screens

Data taken from ChEMBL document CHEMBL3988442, “University of Dundee, Small-Polar-MMV Screening Library” (2021).

Each number is a percent effect as filed. How 0% and 100% were set is not recorded. Most values in the screen are low, and negative values occur. The compounds are a random part of those screened. Two or more numbers in one place are separate tests of the same structure; such repeats can differ widely.

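Phenotypic screen: M. tuberculosis growth, cholesterol and DPPC medium, 4 days; the read-out is not stated. Tested at 50 µM. Direction is inferred from retests: higher values go with more growth inhibition. Of about 69,000 compounds tested this way, about 370 (0.54%) reached 50% or more in at least one test.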

- O=C(Nc1cn[nH]c1)N(CCO)C1CCc2ccccc21 (stereo unspecified) | 1.63%
- CCc1c(C)nc2cc(-c3nccn3C)nn2c1N1CCCC(CO)C1 (stereo unspecified) | -1.445% and 5.414%
- CN(C)c1cc(C(=O)NCC2(c3cccc(F)c3)CCOCC2)ccn1 | 4.651%
- O=C(O)C(F)(F)F.O=C(O)C(F)(F)F.[H][C@@]12C[C@H](C(=O)N(C)C)CN(Cc3ccc4ccccc4n3)[C@]1([H])CCO2 | 6.39% and -27.45%
- COc1ccc(CNC(=O)N2CCCN(CC3CCCCC3)CC2)cn1 | 5.693%
- CCc1noc(CN(C)C(=O)COc2cccc(Cl)c2C)n1 | 7.027%
- O=C(N[C@@H]1CCN(c2nc3ccccc3o2)C[C@H]1O)c1cnccn1 | 1.563%
- CCc1nn(C)c(Cl)c1CN1CCN(c2nc(C(N)=O)cs2)CC1 | 3.594%
- Cc1cc(C(=O)N2CCC(n3nc(C)cc3C)C2)c2ccc(F)cc2n1 (stereo unspecified) | -3.699%
- O=C(O)C(F)(F)F.O=C(O)C(F)(F)F.[H][C@@]12C[C@@H](C(=O)NC)N(C(C)C)[C@]1([H])CN(Cc1c(C)noc1C)C2 | -18.92%
- Cc1cc(N2CCC(O)(CN(C)C)C2)c2cc3c(cc2n1)OCO3 (stereo unspecified) | -10.39%
- Cc1oc(-c2cccs2)nc1C(=O)N1CCCC1Cn1cccn1 (stereo unspecified) | -0.08124%
- CS(=O)(=O)N1CCC[C@]2(C[C@@H](Oc3ncccc3F)CO2)C1.O=C(O)C(F)(F)F | -12.85%
- COCc1ncc(CN2CC(Oc3c(C)cccc3C)C2)cn1 | -2.225%
- O=C(NC[C@H]1OC[C@@H](NC2CCC(F)(F)CC2)[C@@H]1O)c1ccccc1 | -23.97%
- CC(C)N(C)[C@@H]1CCN(C(=O)[C@H]2CCCO2)[C@H]1Cc1cnn(C)c1 | 0.6127% and -16.69%
- CCn1nc(C)c(CCn2ccnc2-c2cc3n(n2)CCNC3)c1C | -0.9944%
- [H][C@@]12CN(S(=O)(=O)CCC)C[C@]1([H])N(CCc1cccc(Cl)c1)C(=O)O2 | 4.71%
- Cc1cnn(CC2CN(CCS(=O)(=O)c3ccccc3)CCO2)c1 (stereo unspecified) | -0.8213%
- CN(C)CCN1CCOCC2(CCCN(C(=O)c3ccccn3)C2)C1.O=C(O)C(F)(F)F.O=C(O)C(F)(F)F (stereo unspecified) | -5.738%
- O=C(c1ccc2nccnc2c1)N1C[C@@H](CN2CCCC2)[C@@H](CO)C1 | -14.23% and -1.713%
- Cc1ccc(CNC2CCCN(Cc3noc(C4CC4)n3)C2)s1 (stereo unspecified) | -26.53%
- CCc1c(C(=O)N2CCN(c3ncccn3)CC2)cnn1C(C)(C)C | 1.985%
- Cc1noc(C)c1CCC(=O)N(C)C(C)c1cccs1 (stereo unspecified) | -15.49%
- Cc1c(C2N3C[C@]4(C(C)C)CN2C[C@](C(C)C)(C3)C4=O)[nH]c(=O)[nH]c1=O (stereo partly specified) | 0.7566%
- CCOc1ncccc1Cn1cc(-c2cncnc2)nn1 | 1.946%
- O=C(N1CCCC1)N1Cc2nccn2CC(COc2cccnc2)C1.O=C(O)C(F)(F)F (stereo unspecified) | 1.39%
- Cc1nc(CN2CCN(c3ccc(SC(C)C)nn3)CC2)cs1 | -12.17%
- c1ncn(CC2CN(CC3CCCC3)CCO2)n1 (stereo unspecified) | -7.696%
- O=C(c1ccc(=O)[nH]c1)N1CCC(Oc2cccc(C(F)(F)F)c2)CC1 | -19.89%
- Cc1noc(C)c1CN1CCOC2(CCCN(c3nncs3)C2)C1.O=C(O)C(F)(F)F (stereo unspecified) | -22.1%
- CCN(CC)C(=O)[C@@H]1C[C@H](N)CN1C(=O)c1cc2c([nH]c1=O)CCC2 | -2.146%
- Cc1ccn(CCNC(=O)C2(C)CC(c3ccccc3)=NO2)n1 (stereo unspecified) | 20.86%
- [H][C@]12CCN(S(=O)(=O)c3ccc(OC)cc3)[C@@]1([H])CC[C@@H](COC)O2 | -7.887%
- CC(C)COc1cccc(-c2nc3c([nH]2)CCNC3)c1 | -1.642%
- CC(C)CNC(=O)Cc1cnc(-n2cccc2)s1 | -14.68%
- c1csc(CCNC2CCc3ncnn3C2)c1 (stereo unspecified) | 3.386%
- Cc1ncc(CN2CCCC(c3cc(C(F)(F)F)[nH]n3)C2)s1 (stereo unspecified) | 32.8%
- CCOCCN1C[C@H](c2cccc(OC)c2)[C@@H](N)C1 | -4.901%
- COc1ncnc(N)c1CNCC(C)SC (stereo unspecified) | -21.99%
- COCC(NC(=O)c1cc[nH]n1)c1cccc(C(F)(F)F)c1 (stereo unspecified) | -1.647%
- CC(O)CNCc1ccccc1C(F)(F)F.Cl (stereo unspecified) | -0.5465%
- CN(Cc1ccc2c(c1)OCCO2)Cc1nnnn1-c1ccccc1 | -1.221%
- O=C(NCCc1cccnc1)NC1CCOC2(CCCCC2)C1 (stereo unspecified) | -12.53%
- CNC(=O)CN1CCC2(CCCN(CC3CCOC3)C2)CC1.O=C(O)C(F)(F)F.O=C(O)C(F)(F)F (stereo unspecified) | 16.04%

Repeated from the top, 4 entries:

O=C(Nc1cn[nH]c1)N(CCO)C1CCc2ccccc21 (stereo unspecified) read 1.63%.
CCc1c(C)nc2cc(-c3nccn3C)nn2c1N1CCCC(CO)C1 (stereo unspecified) read -1.445% and 5.414%.
CN(C)c1cc(C(=O)NCC2(c3cccc(F)c3)CCOCC2)ccn1 read 4.651%.
O=C(O)C(F)(F)F.O=C(O)C(F)(F)F.[H][C@@]12C[C@H](C(=O)N(C)C)CN(Cc3ccc4ccccc4n3)[C@]1([H])CCO2 read 6.39% and -27.45%.